{"source": "PubChem BioAssay AID1508588 | Peter MacCallum Cancer Centre – 2020", "test": "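Which gene losses make BRAF-mutant melanoma cells more responsive to vemurafenib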 (primary screen)", "cells": "human WM266.4 melanoma cells (BRAF V600 mutant)", "knock-down reagent": "siRNA pool against human genes, 40 nM", "timing": "96 h from transfection to read-out", "challenge": "vemurafenib 300 nM (about IC25), added 48 h after transfection, for 48 h; comparison arm got DMSO vehicle only", "measurement": "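Ratios to non-targeting siRNA for cell gain, counted as DAPI nuclei after minus before drug and averaged over two replicates, and for absorbance-read medium lactate per cell; both binned into fold-change classes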", "scale": "cell gain with vemurafenib: higher = more cell gain than with non-targeting siRNA; lactate per cell with vemurafenib: higher = more lactate made per cell", "hit rule": "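a knock-down counts as enhancing when its fold-change classes with vehicle and with vemurafenib, taken together, show a stronger drug effect on cell gain or lactate per cell; exact class pairs not stated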", "calls": "active = enhances vemurafenib effect; inactive = no enhancement seen", "note": "Shown is a random part of about 18,000 deposited reagents. Of all reagents, 790 (4.4%) were called active. 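Calls rest on a combination of fold-change classes in drug and vehicle arms, not all shown here.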"}
{"gene symbol": "GRIK1 (GeneID 2897)", "cell gain with vemurafenib": 0.49, "lactate per cell with vemurafenib": 0.39, "activity call": "inactive"}
{"gene symbol": "DEFB104A (GeneID 140596)", "cell gain with vemurafenib": 0.54, "lactate per cell with vemurafenib": 0.9, "activity call": "inactive"}
{"gene symbol": "CBX3 (GeneID 11335)", "cell gain with vemurafenib": 0, "lactate per cell with vemurafenib": 0, "activity call": "inactive"}
{"gene symbol": "SF3B5 (GeneID 83443)", "cell gain with vemurafenib": 0.08, "lactate per cell with vemurafenib": 1.73, "activity call": "inactive"}
{"gene symbol": "ZNF580 (GeneID 51157)", "cell gain with vemurafenib": 0.34, "lactate per cell with vemurafenib": 0.92, "activity call": "inactive"}
{"gene symbol": "SERPINA10 (GeneID 51156)", "cell gain with vemurafenib": 0.46, "lactate per cell with vemurafenib": 1.08, "activity call": "inactive"}
{"gene symbol": "ATG2A (GeneID 23130)", "cell gain with vemurafenib": 0.64, "lactate per cell with vemurafenib": 0.66, "activity call": "inactive"}
{"gene symbol": "SFPQ (GeneID 6421)", "cell gain with vemurafenib": 0.18, "lactate per cell with vemurafenib": 1.94, "activity call": "inactive"}
{"gene symbol": "OR10K1 (GeneID 391109)", "cell gain with vemurafenib": 0.78, "lactate per cell with vemurafenib": 0.77, "activity call": "inactive"}
{"gene symbol": "RAB33B (GeneID 83452)", "cell gain with vemurafenib": 0.8, "lactate per cell with vemurafenib": 1.08, "activity call": "inactive"}
{"gene symbol": "DNASE1L1 (GeneID 1774)", "cell gain with vemurafenib": 0.7, "lactate per cell with vemurafenib": 0.58, "activity call": "inactive"}
{"gene symbol": "PPA1 (GeneID 5464)", "cell gain with vemurafenib": -0.02, "lactate per cell with vemurafenib": 2.84, "activity call": "inactive"}
{"gene symbol": "ANXA1 (GeneID 301)", "cell gain with vemurafenib": 0.81, "lactate per cell with vemurafenib": 0.86, "activity call": "inactive"}
{"gene symbol": "DCUN1D1 (GeneID 54165)", "cell gain with vemurafenib": 0.75, "lactate per cell with vemurafenib": 0.7, "activity call": "inactive"}

Continued (2 carried over from the part before).
{"gene symbol": "ANXA1 (GeneID 301)", "cell gain with vemurafenib": 0.81, "lactate per cell with vemurafenib": 0.86, "activity call": "inactive"}
{"gene symbol": "DCUN1D1 (GeneID 54165)", "cell gain with vemurafenib": 0.75, "lactate per cell with vemurafenib": 0.7, "activity call": "inactive"}
{"gene symbol": "CIAO1 (GeneID 9391)", "cell gain with vemurafenib": 0.93, "lactate per cell with vemurafenib": 0.66, "activity call": "inactive"}
{"gene symbol": "CIROZ (GeneID 148345)", "cell gain with vemurafenib": 0.68, "lactate per cell with vemurafenib": 0.94, "activity call": "inactive"}
{"gene symbol": "AMMECR1 (GeneID 9949)", "cell gain with vemurafenib": 0.66, "lactate per cell with vemurafenib": 0.91, "activity call": "inactive"}
{"gene symbol": "CPT1B (GeneID 1375)", "cell gain with vemurafenib": 0.79, "lactate per cell with vemurafenib": 0.71, "activity call": "inactive"}
{"gene symbol": "ADSL (GeneID 158)", "cell gain with vemurafenib": 1.2, "lactate per cell with vemurafenib": 1.11, "activity call": "inactive"}
{"gene symbol": "OR1Q1 (GeneID 158131)", "cell gain with vemurafenib": 1.35, "lactate per cell with vemurafenib": 0.55, "activity call": "inactive"}
{"gene symbol": "USP43 (GeneID 124739)", "cell gain with vemurafenib": -0.01, "lactate per cell with vemurafenib": 2.67, "activity call": "inactive"}
{"gene symbol": "ZFPM1 (GeneID 161882)", "cell gain with vemurafenib": 0.43, "lactate per cell with vemurafenib": 0.34, "activity call": "inactive"}
{"gene symbol": "CDYL (GeneID 9425)", "cell gain with vemurafenib": 0.88, "lactate per cell with vemurafenib": 1.29, "activity call": "inactive"}
{"gene symbol": "DKK2 (GeneID 27123)", "cell gain with vemurafenib": 0.42, "lactate per cell with vemurafenib": 1.12, "activity call": "inactive"}
{"gene symbol": "TMEM213 (GeneID 155006)", "cell gain with vemurafenib": 0.32, "lactate per cell with vemurafenib": 1.44, "activity call": "inactive"}
{"gene symbol": "PF4V1 (GeneID 5197)", "cell gain with vemurafenib": 0.73, "lactate per cell with vemurafenib": 0.6, "activity call": "inactive"}
{"gene symbol": "CAP2 (GeneID 10486)", "cell gain with vemurafenib": 0.61, "lactate per cell with vemurafenib": 1.11, "activity call": "inactive"}
